Measured values published in publication PMC5226524.
Results are given in words; binding and its absence hold for the method and conditions named. In cells and extracts the contact can be indirect. Here binding means that the protein was enriched with, or labelled near, the bait; the list need not be complete. No binding means not detected with the bait.

Amino acid sequences for entries named in this document (tags omitted). A change or cut given only in a name is not applied to a line headed by its entry.
UniProt Q53EP0: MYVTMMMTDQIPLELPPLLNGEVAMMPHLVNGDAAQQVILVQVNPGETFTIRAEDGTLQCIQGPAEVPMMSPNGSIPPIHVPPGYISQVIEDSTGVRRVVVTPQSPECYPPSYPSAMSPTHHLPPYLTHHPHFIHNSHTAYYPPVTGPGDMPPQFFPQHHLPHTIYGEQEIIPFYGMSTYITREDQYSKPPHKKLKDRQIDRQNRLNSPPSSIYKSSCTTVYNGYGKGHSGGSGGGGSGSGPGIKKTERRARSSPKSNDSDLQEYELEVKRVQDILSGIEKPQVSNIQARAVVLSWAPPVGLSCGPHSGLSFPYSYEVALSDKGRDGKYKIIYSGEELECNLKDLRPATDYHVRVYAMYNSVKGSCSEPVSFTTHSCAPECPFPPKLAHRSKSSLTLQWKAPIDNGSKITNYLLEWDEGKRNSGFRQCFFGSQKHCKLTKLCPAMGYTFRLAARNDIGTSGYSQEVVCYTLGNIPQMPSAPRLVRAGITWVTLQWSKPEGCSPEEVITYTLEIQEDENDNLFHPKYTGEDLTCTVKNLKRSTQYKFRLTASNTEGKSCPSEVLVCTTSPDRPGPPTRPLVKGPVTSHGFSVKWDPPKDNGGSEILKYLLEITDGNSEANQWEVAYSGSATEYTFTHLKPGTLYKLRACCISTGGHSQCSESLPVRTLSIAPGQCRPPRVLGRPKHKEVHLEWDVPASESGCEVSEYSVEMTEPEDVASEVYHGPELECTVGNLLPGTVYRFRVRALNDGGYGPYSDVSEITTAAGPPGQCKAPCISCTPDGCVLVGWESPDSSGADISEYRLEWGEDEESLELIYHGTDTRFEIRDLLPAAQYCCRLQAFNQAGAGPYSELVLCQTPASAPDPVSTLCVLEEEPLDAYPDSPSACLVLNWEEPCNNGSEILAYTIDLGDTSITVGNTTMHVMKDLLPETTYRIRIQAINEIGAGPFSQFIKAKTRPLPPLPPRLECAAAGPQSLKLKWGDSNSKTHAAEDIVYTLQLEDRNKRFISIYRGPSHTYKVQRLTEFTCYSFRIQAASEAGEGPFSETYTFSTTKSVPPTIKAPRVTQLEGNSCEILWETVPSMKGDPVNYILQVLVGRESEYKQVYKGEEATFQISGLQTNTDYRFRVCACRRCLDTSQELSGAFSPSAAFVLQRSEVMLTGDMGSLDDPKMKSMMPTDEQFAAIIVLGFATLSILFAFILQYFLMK
UniProt P07355: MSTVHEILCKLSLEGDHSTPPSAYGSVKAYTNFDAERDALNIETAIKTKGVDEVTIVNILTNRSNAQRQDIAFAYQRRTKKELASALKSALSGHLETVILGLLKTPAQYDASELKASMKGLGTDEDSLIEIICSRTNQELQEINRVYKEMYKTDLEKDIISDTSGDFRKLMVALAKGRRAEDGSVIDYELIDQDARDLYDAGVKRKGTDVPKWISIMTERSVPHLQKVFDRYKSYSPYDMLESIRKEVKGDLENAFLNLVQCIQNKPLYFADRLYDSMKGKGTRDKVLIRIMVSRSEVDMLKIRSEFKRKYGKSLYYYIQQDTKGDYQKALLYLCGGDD

Molecular target: FNDC3B Δ1~4 mutant (deletion of FNIII domains 1-4) (human) (UniProt Q53EP0)
Test: affinity purification with mass spectrometry; co-IP of wild type FNDC3B and Δ1~4 mutant; differentially bound protein bands picked from SDS-PAGE, in-gel digestion, LC-MS/MS

- binding: no binding
Substance: annexin A2 (ANXA2) (from UniProt P07355 1-339)
